Consider 1 substance from paper PMC9581579 (2022).

The assay deals with T1, Gpsm2-FLAG (MBP tag removed) (UniProt P81274).
T1 sequence: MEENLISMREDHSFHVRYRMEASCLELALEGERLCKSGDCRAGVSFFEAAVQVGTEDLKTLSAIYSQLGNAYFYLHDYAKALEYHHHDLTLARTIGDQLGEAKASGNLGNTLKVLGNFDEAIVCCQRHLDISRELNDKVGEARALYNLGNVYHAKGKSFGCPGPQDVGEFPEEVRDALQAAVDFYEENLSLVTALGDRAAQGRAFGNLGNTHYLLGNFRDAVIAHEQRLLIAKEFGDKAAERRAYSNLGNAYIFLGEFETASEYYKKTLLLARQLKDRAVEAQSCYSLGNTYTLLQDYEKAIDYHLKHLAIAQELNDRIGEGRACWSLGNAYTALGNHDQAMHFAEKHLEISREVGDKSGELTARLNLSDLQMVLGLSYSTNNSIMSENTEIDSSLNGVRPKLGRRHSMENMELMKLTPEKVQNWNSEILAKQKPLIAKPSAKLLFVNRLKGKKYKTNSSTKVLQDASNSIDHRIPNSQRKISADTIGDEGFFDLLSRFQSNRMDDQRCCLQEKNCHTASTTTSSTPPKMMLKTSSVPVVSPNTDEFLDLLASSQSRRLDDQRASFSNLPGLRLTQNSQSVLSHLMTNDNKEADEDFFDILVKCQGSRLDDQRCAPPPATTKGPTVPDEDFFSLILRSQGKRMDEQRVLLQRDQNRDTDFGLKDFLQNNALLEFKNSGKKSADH
In words: pull-down; Avi-tagged Gαt* bound to streptactin-agarose beads, incubated with 10 μM Gpsm2-FLAG and/or 20 μM His-HA-thioredoxin-Frmpd1 peptide; 20 mM Tris, 150 mM KCl, 5% glycerol, 1 mM TCEP, 0.5 mg/ml BSA, pH 7.5; blots anti-HA and anti-FLAG; both purified.

Results are given in words; binding and its absence hold for the method and conditions named. A result given as binding can be weak or reduced; the word gives no strength. Tags and fused reporters may be left off the sequences shown.

“His-HA-thioredoxin-Frmpd1 peptide (residues 895–938) (domain or fragment)”: the binding entry is reported as “binds”.
